Data as given in PubChem BioAssay AID1159578 (Peter MacCallum Cancer Centre, 2015).
Assay: 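Genome-wide hunt for genes controlling movement of lymphatic endothelial cells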 (primary screen). Cells: human lymphatic endothelial cells. Knock-down reagent: siRNA pool against human genes, 40 nM. Time to read-out: 48 h after transfection. Detection: 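Cells stained with dye and imaged after a scratch; covered wound area and nuclei counted, duplicates averaged, migration set against mock wells and turned into a robust z-score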. Reading the numbers: migration robust z-score: higher = faster migration into the scratch; migration relative to mock: higher = more scratch area covered than mock; nuclei per well: higher = more cells in the well. Rule for the call: 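Migration changed when robust z exceeds 2 or falls below -2 and mean nuclei number is at least 3300; otherwise not called changed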. Calls: active = migration changed; inactive = no migration change, or too few cells.
Shown is an unselected part of about 18,000 deposited reagents. About 1,030 of them (5.7%) count as active. 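Inactive calls also include pools with fewer than 3300 nuclei, whose migration was not assessed.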 The raw values are shown without normalisation.

The opening 5 records as a preview:
target | migration robust z-score | migration class with cell-count check | migration relative to mock | nuclei per well, duplicate mean | activity call
AVP (GeneID 551) | -2.57 | under 3300 nuclei; migration not judged | 0.22 | 1974 | inactive
CHI3L1 (GeneID 1116) | -1.06 | migration z between -2 and 2; enough cells | 0.61 | 7444 | inactive
SPECC1L (GeneID 23384) | 0.98 | migration z between -2 and 2; enough cells | 1.14 | 5620 | inactive
NOL8 (GeneID 55035) | 0.98 | migration z between -2 and 2; enough cells | 1.14 | 4992 | inactive
ANKRD50 (GeneID 57182) | -1.05 | migration z between -2 and 2; enough cells | 0.62 | 3742 | inactive

The list itself, repeating the preview:
target | migration robust z-score | migration class with cell-count check | migration relative to mock | nuclei per well, duplicate mean | activity call
AVP (GeneID 551) | -2.57 | under 3300 nuclei; migration not judged | 0.22 | 1974 | inactive
CHI3L1 (GeneID 1116) | -1.06 | migration z between -2 and 2; enough cells | 0.61 | 7444 | inactive
SPECC1L (GeneID 23384) | 0.98 | migration z between -2 and 2; enough cells | 1.14 | 5620 | inactive
NOL8 (GeneID 55035) | 0.98 | migration z between -2 and 2; enough cells | 1.14 | 4992 | inactive
ANKRD50 (GeneID 57182) | -1.05 | migration z between -2 and 2; enough cells | 0.62 | 3742 | inactive
FUT7 (GeneID 2529) | 1.22 | migration z between -2 and 2; enough cells | 1.04 | 6176 | inactive
BAP1 (GeneID 8314) | 0.6 | migration z between -2 and 2; enough cells | 0.92 | 6030 | inactive
SLC2A10 (GeneID 81031) | -3.41 | migration z below -2; enough cells | 0 | 5206 | active
CAST (GeneID 831) | -0.5 | migration z between -2 and 2; enough cells | 0.75 | 5902 | inactive
F8 (GeneID 2157) | -0.9 | migration z between -2 and 2; enough cells | 0.63 | 3649 | inactive
ZNF624 (GeneID 57547) | 1.39 | migration z between -2 and 2; enough cells | 1.25 | 6290 | inactive
DLL3 (GeneID 10683) | -0.7 | migration z between -2 and 2; enough cells | 0.7 | 4635 | inactive
TBC1D28 (GeneID 254272) | 1.37 | migration z between -2 and 2; enough cells | 1.24 | 3648 | inactive
KBTBD4 (GeneID 55709) | -0.36 | migration z between -2 and 2; enough cells | 0.74 | 5366 | inactive
PAK5 (GeneID 57144) | -0.75 | migration z between -2 and 2; enough cells | 0.66 | 5342 | inactive
NUDT16L1 (GeneID 84309) | 0.7 | migration z between -2 and 2; enough cells | 1.06 | 5364 | inactive
ADCYAP1R1 (GeneID 117) | 1.46 | migration z between -2 and 2; enough cells | 1.08 | 7630 | inactive
TMEM9 (GeneID 252839) | 0.2 | migration z between -2 and 2; enough cells | 0.94 | 6793 | inactive
IFI16 (GeneID 3428) | -1.09 | migration z between -2 and 2; enough cells | 0.6 | 5329 | inactive
TMEM167A (GeneID 153339) | 0.29 | migration z between -2 and 2; enough cells | 0.96 | 3917 | inactive
RIT2 (GeneID 6014) | -0.47 | migration z between -2 and 2; enough cells | 0.72 | 6116 | inactive
MARK1 (GeneID 4139) | -2.49 | migration z below -2; enough cells | 0.32 | 4574 | active
MALT1 (GeneID 10892) | -0.62 | migration z between -2 and 2; enough cells | 0.68 | 4458 | inactive
LARS1 (GeneID 51520) | -0.76 | migration z between -2 and 2; enough cells | 0.69 | 6372 | inactive
METTL1 (GeneID 4234) | -0.8 | migration z between -2 and 2; enough cells | 0.65 | 3804 | inactive
DIP2A (GeneID 23181) | 0.16 | migration z between -2 and 2; enough cells | 0.84 | 4635 | inactive
OR5B17 (GeneID 219965) | 0.48 | migration z between -2 and 2; enough cells | 1 | 6058 | inactive
DEFB104A (GeneID 140596) | -1.1 | migration z between -2 and 2; enough cells | 0.6 | 4010 | inactive
CDK19 (GeneID 23097) | -1.53 | migration z between -2 and 2; enough cells | 0.51 | 6186 | inactive
ITGB5 (GeneID 3693) | -0.18 | migration z between -2 and 2; enough cells | 0.77 | 5890 | inactive
CFHR2 (GeneID 3080) | -1.48 | migration z between -2 and 2; enough cells | 0.5 | 5992 | inactive
IFNL2 (GeneID 282616) | 0.28 | migration z between -2 and 2; enough cells | 0.96 | 6217 | inactive
MOCS2 (GeneID 4338) | 1.06 | migration z between -2 and 2; enough cells | 1.01 | 6667 | inactive
MFAP5 (GeneID 8076) | -0.27 | migration z between -2 and 2; enough cells | 0.82 | 4814 | inactive
CPSF3 (GeneID 51692) | -0.75 | migration z between -2 and 2; enough cells | 0.69 | 5628 | inactive
POLE3 (GeneID 54107) | -1.03 | migration z between -2 and 2; enough cells | 0.6 | 4771 | inactive
CPE (GeneID 1363) | 0.86 | migration z between -2 and 2; enough cells | 0.97 | 6980 | inactive
TBX18 (GeneID 9096) | 0.16 | migration z between -2 and 2; enough cells | 0.84 | 6639 | inactive
CHD2 (GeneID 1106) | 0.36 | migration z between -2 and 2; enough cells | 0.88 | 5580 | inactive
OR51L1 (GeneID 119682) | -1.42 | migration z between -2 and 2; enough cells | 0.52 | 5904 | inactive
ANKRD16 (GeneID 54522) | 0 | migration z between -2 and 2; enough cells | 0.88 | 5818 | inactive
GFRA3 (GeneID 2676) | -0.02 | migration z between -2 and 2; enough cells | 0.8 | 5845 | inactive
PKD1L1-AS1 (GeneID 80099) | -0.93 | migration z between -2 and 2; enough cells | 0.64 | 3838 | inactive
SIL1 (GeneID 64374) | 1.25 | migration z between -2 and 2; enough cells | 1.21 | 7631 | inactive
HSPD1 (GeneID 3329) | -0.1 | migration z between -2 and 2; enough cells | 0.78 | 5896 | inactive
PRR7 (GeneID 80758) | -1.14 | migration z between -2 and 2; enough cells | 0.59 | 6047 | inactive
PLCB1 (GeneID 23236) | -0.28 | migration z between -2 and 2; enough cells | 0.81 | 7412 | inactive
ARHGEF15 (GeneID 22899) | 1.08 | migration z between -2 and 2; enough cells | 1.17 | 5686 | inactive
GJA1 (GeneID 2697) | -0.5 | migration z between -2 and 2; enough cells | 0.71 | 5768 | inactive
PRAMEF7 (GeneID 441871) | -0.68 | migration z between -2 and 2; enough cells | 0.7 | 6444 | inactive
CAMSAP3 (GeneID 57662) | 0.21 | migration z between -2 and 2; enough cells | 0.94 | 6148 | inactive
TMED10 (GeneID 10972) | -1.34 | under 3300 nuclei; migration not judged | 0.54 | 2986 | inactive
RPP25 (GeneID 54913) | -0.7 | migration z between -2 and 2; enough cells | 0.71 | 5321 | inactive
HNRNPM (GeneID 4670) | -0.58 | migration z between -2 and 2; enough cells | 0.74 | 5998 | inactive
COG7 (GeneID 91949) | 0.39 | migration z between -2 and 2; enough cells | 0.98 | 6640 | inactive
OR1J4 (GeneID 26219) | 0.36 | migration z between -2 and 2; enough cells | 0.98 | 5428 | inactive
WASHC5 (GeneID 9897) | -0.31 | migration z between -2 and 2; enough cells | 0.8 | 6887 | inactive
PSMA4 (GeneID 5685) | 0.44 | migration z between -2 and 2; enough cells | 0.89 | 4698 | inactive
DTWD1 (GeneID 56986) | -1.4 | migration z between -2 and 2; enough cells | 0.52 | 5924 | inactive
PPP2R2D (GeneID 55844) | 0.06 | migration z between -2 and 2; enough cells | 0.82 | 5748 | inactive
NAT8 (GeneID 9027) | 0.46 | migration z between -2 and 2; enough cells | 0.9 | 5084 | inactive
TMEFF1 (GeneID 8577) | -0.33 | migration z between -2 and 2; enough cells | 0.8 | 5633 | inactive
ZNF433 (GeneID 163059) | 0.43 | migration z between -2 and 2; enough cells | 1 | 5800 | inactive
THPO (GeneID 7066) | -1.27 | migration z between -2 and 2; enough cells | 0.56 | 5038 | inactive
ZMYM1 (GeneID 79830) | 0.23 | migration z between -2 and 2; enough cells | 0.94 | 6274 | inactive
WDR82 (GeneID 80335) | 1.63 | migration z between -2 and 2; enough cells | 1.31 | 7751 | inactive
NDNF (GeneID 79625) | -1.33 | migration z between -2 and 2; enough cells | 0.54 | 5637 | inactive
RMND5B (GeneID 64777) | 0.94 | migration z between -2 and 2; enough cells | 1.13 | 6342 | inactive
FAM53A (GeneID 152877) | -0.85 | migration z between -2 and 2; enough cells | 0.66 | 4780 | inactive
HAX1 (GeneID 10456) | -0.68 | under 3300 nuclei; migration not judged | 0.71 | 3084 | inactive
DPRX (GeneID 503834) | 0.56 | migration z between -2 and 2; enough cells | 1.03 | 6152 | inactive
PKD1 (GeneID 5310) | 0.73 | migration z between -2 and 2; enough cells | 0.94 | 4224 | inactive
THBS2 (GeneID 7058) | 2.82 | migration z above 2; enough cells | 1.62 | 5865 | active
